This passage reports binding results from publication doi:10.1101/2023.03.30.534876.

These are yes or no findings as the source states them, for the method shown. In cells and extracts the contact can be indirect. Binding calls can cover weak binding; strength is not graded here. Sequences can lack the tags named with a protein.

This test addresses T1, PPE51 in pUAB300 (M-PFC fusion to a murine dihydrofolate reductase domain) (M. tuberculosis) (UniProt P9WHY3).
T1 sequence: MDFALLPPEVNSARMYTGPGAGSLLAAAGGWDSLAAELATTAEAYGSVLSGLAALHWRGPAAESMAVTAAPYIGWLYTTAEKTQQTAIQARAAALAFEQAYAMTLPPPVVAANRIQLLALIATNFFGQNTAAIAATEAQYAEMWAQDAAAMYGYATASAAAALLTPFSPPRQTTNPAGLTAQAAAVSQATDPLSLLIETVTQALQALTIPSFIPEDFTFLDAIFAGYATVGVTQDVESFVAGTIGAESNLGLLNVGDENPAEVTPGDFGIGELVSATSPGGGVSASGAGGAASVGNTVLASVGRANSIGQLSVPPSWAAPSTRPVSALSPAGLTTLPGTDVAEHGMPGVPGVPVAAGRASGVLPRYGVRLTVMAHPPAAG
Put plainly: split reporter.

With “PPE50 in pUAB400 (M-PFC fusion to a murine dihydrofolate reductase domain) (M. tuberculosis)”, the binding result is “binds”.
